For this data set, the target named is T1, RepA (His6-RepA) (UniProt Q209K0).
T1 sequence (looked up): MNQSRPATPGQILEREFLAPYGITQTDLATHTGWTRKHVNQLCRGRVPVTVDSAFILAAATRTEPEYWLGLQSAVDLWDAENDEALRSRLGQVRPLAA
Nature of the data set: EMSA. Particulars: 25 mM Tris-HCl pH 8.0, 5 mM MgCl2, 40 mM NaCl, 0.5 mg/mL BSA, 30 min at 37 C, 20 uL, 30 ng PCR fragment (0.8% agarose) or 150 ng ds oligo (10% native PAGE), 0.5x TBE, recombinant protein, residues 1-98, protein details: N-terminal His6, label: none (ethidium bromide stain), probe letters rebuilt from the primers and the genome. (In general: A gel shift assay detects complexes by their altered migration in electrophoresis.)

A negative result means that nothing was seen under these conditions. The exact form of at least one protein or probe is not confirmed. At least one verdict was read from the data and is not stated in words by the source. Tags and fusion partners may be left off the protein sequences shown.

Take “CGGATCCGCGGGCCTGATCTATTGTTGAAGTTTACCAACTAGGTTACACTTCAAAACACATCATTCTGATGAGGGCTTATTACATGAACCAATCACGACCGGCCACACCTGGCCAGATACTTGAAAGGGAATTCTTGGCCCCGTACGGAATCACTCAAACAGACTTGGCCACCCATACCGGATGGACAAGAAAGCACGTTAATCAGCTATGTCGCGGGCGAGTGCCTGTTACAGTCGATAGCGCGTTTATCCTGGCAGCAGCTAGGATCCCG (double strand) [repAp 256 bp PCR fragment]”: the binding result (WT control) was “binds”.

Take “CGGATCCGCGGGCCTGATCTATTGTTGAAGTTTACCAACTAGGTTACACTTCAAAACACATCATTCTGATGAGGGCTTATTACATGAACCAATCACGACCGGCCACACCTGGCCAGATACTTGAAAGGGAATTCTTGGCCCCGTACGGAATCACTCAAACAGACTTGGCCACCCATACCGGATGGACAAGAAAGCACGTTAATCAGCTATGTCGCGGGCGAGTGCCTGTTACAGTCGATAGCGCGTTTATCCTGGCAGCAGCTACACGAACAGAGCCGGAATACTGGCTAGGGCTGCAAAGTGCCGTGGATCTATGGGACGCAGAGAATGACGAGGCGTTGCGTAGTCGTCTAGGACAGGTGAGGCCGTTAGCGGCATAGAAAGCATGCGGATCCG (double strand) [repAp-repA 376 bp PCR fragment]”: the binding result (binding detected at 25 nM RepA) was “binds”.

“GCGGATCCGATAGCTCTTTGCCATTAACGACCTCTTTAAACATGGGGGGGCAGGGGGGGACAGGTGCAATTTTAGCACAAGCGGCGGCAGACGCTAGCAAATTGCGAATCCTGCCCTAGTTCTAACCCCCCCATGTTTTTTCGTACGTACGAAATTTTTCGGTTTTGCAGTGGCTTTTGGCCTTCGGCCAGGCTCACCAGGTCGCGGGGCTCCCTGGCTCGTCGGCTTCCCCTAACTTTGGATTGTGCAATCCAAAAGGCTGCCGCATAATGGTTATAGATTGTGCAATCCAATACACGGAGCAGGGCACTAGATGAAACCAACATTGCAGGCTTACGACGAACTACAGCGGGCATATGATCACTTTAACAACGAGCTGTTTGATGGTGTCCTGCCCGATTGCCTGATCACCCTCCAACGAGAAAAGCATGCGC (double strand) [mobCp 417 bp PCR fragment]”: the binding result (no binding up to 5 uM RepA) was “no binding”.

Values taken from PMC9455977, “Deciphering the Regulatory Circuits of RA3 Replication Module - Mechanisms of the Copy Number Control”.
